Data: PubChem BioAssay AID248 (DTP/NCI, 2004)
The list is a part of this screen's results and no random one: it is rich in T/C values a quarter to a half above the control, in often repeated tests (any T/C) and in doses without a T/C. Other doses and runs of a compound stand elsewhere. T/C is the treated group as % of the vehicle group. Some doses have a count of surviving animals in place of a T/C: the source holds a T/C of zero for them, seemingly a mark for toxic or unscored doses. Some survivor counts are full or nearly so, which does not show that the dose was tolerated: the source hardly ever lists a survival T/C far under the control, and the zero likely stands for such cases as well. Counts of survivors are from the toxicity check (mostly the fifth day) where no day follows; animals may have died later. Schedule codes are those of the source, taken here to give the interval after Q, in days (D) or hours (H), and the number of doses after X. Where survival is the endpoint, this PubChem deposit counts one and a half times the control or more as active, and values a quarter to a half above the control carry no call in these data; other NCI protocols may use other cut-offs. Some entries were tested several times; their values stand side by side, smallest first. Some T/C values are followed by the survivors on the day toxicity was checked, most often the fifth; without a count, all were alive then.

Test system: L1210 leukemia ip in BDF1 mice, survival T/C
Experiment: NCI In Vivo Anticancer Drug Screen. Data for tumor model L1210 Leukemia (intraperitoneal) in B6D2F1 (BDF1) mice
Conditions: higher T/C = longer survival

Structure (SMILES): COc1cc2cc3c4cc(OC)c(OC)cc4cc[n+]3c(C)c2cc1OC
- T/C (T/C endpoint: mean survival time, dose: 25.0 mg/kg/injection, schedule: Q01DX009 (ip), vehicle: water): 140 % of control
- T/C (T/C endpoint: mean survival time, dose: 25.0 mg/kg/injection, schedule: Q04DX003 (ip), vehicle: water): 132 % of control [9 of 10 alive]
- T/C (T/C endpoint: mean survival time, dose: 32.0 mg/kg/injection, schedule: Q03HX016 (ip), vehicle: saline): 132 % of control [8 of 10 alive]
- T/C (T/C endpoint: mean survival time, dose: 50.0 mg/kg/injection, schedule: Q01DX009 (ip), vehicle: saline): 128 and 131 % of control
- T/C (T/C endpoint: mean survival time, dose: 50.0 mg/kg/injection, schedule: Q01DX009 (ip), vehicle: water): 125 % of control
- T/C (T/C endpoint: mean survival time, dose: 50.0 mg/kg/injection, schedule: Q04DX003 (ip), vehicle: water): 129 % of control
- T/C (T/C endpoint: mean survival time, dose: 64.0 mg/kg/injection, schedule: Q03HX016 (ip), vehicle: saline): 127 % of control
- T/C (T/C endpoint: mean survival time, dose: 64.0 mg/kg/injection, schedule: Q03HX024 (ip), vehicle: saline): 133 % of control [9 of 10 alive]
- T/C (T/C endpoint: mean survival time, dose: 100.0 mg/kg/injection, schedule: Q01DX001 (ip), vehicle: water): 142 % of control
- T/C (T/C endpoint: mean survival time, dose: 100.0 mg/kg/injection, schedule: Q01DX009 (ip), vehicle: water): 128 % of control [9 of 10 alive]
- T/C (T/C endpoint: mean survival time, dose: 100.0 mg/kg/injection, schedule: Q04DX002 (ip), vehicle: saline): 126 % of control
- T/C (T/C endpoint: mean survival time, dose: 100.0 mg/kg/injection, schedule: Q04DX003 (ip), vehicle: water): 134 % of control
- survivor count (T/C endpoint: mean survival time, dose: 128.0 mg/kg/injection, schedule: Q03HX016 (ip), vehicle: saline): 5 of 10
- T/C (T/C endpoint: mean survival time, dose: 128.0 mg/kg/injection, schedule: Q03HX024 (ip), vehicle: saline): 129 % of control [9 of 10 alive]
- T/C (T/C endpoint: mean survival time, dose: 200.0 mg/kg/injection, schedule: Q01DX001 (ip), vehicle: water): 127 % of control
- T/C (T/C endpoint: mean survival time, dose: 200.0 mg/kg/injection, schedule: Q01DX009 (ip), vehicle: saline): 138 % of control [5 of 6 alive]
- T/C (T/C endpoint: mean survival time, dose: 200.0 mg/kg/injection, schedule: Q01DX009 (ip), vehicle: water): 132 % of control
- T/C (T/C endpoint: mean survival time, dose: 200.0 mg/kg/injection, schedule: Q04DX002 (ip), vehicle: saline): 126 % of control
- T/C (T/C endpoint: mean survival time, dose: 200.0 mg/kg/injection, schedule: Q04DX003 (ip), vehicle: saline): 130 % of control
- T/C (T/C endpoint: mean survival time, dose: 200.0 mg/kg/injection, schedule: Q04DX003 (ip), vehicle: water): 130 % of control
- T/C (T/C endpoint: mean survival time, dose: 256.0 mg/kg/injection, schedule: Q01DX009 (ip), vehicle: saline): 128 % of control
- survivor count (T/C endpoint: mean survival time, dose: 256.0 mg/kg/injection, schedule: Q03HX008 (ip), vehicle: saline): 3 of 10
- survivor count (T/C endpoint: mean survival time, dose: 256.0 mg/kg/injection, schedule: Q03HX016 (ip), vehicle: saline): 2 of 10
- survivor count (T/C endpoint: mean survival time, dose: 256.0 mg/kg/injection, schedule: Q03HX024 (ip), vehicle: saline): 7 of 10
- T/C (T/C endpoint: mean survival time, dose: 256.0 mg/kg/injection, schedule: Q04DX003 (ip), vehicle: saline): 128 % of control
- T/C (T/C endpoint: mean survival time, dose: 400.0 mg/kg/injection, schedule: Q01DX001 (ip), vehicle: water): 137 % of control
- T/C (T/C endpoint: mean survival time, dose: 400.0 mg/kg/injection, schedule: Q01DX009 (ip), vehicle: saline): 131 % of control
- T/C (T/C endpoint: mean survival time, dose: 400.0 mg/kg/injection, schedule: Q04DX003 (ip), vehicle: water): 131 % of control
- T/C (T/C endpoint: mean survival time, dose: 512.0 mg/kg/injection, schedule: Q01DX009 (ip), vehicle: saline): 134 % of control [7 of 10 alive]
- T/C (T/C endpoint: mean survival time, dose: 512.0 mg/kg/injection, schedule: Q04DX003 (ip), vehicle: saline): 134 % of control
- T/C (T/C endpoint: mean survival time, dose: 1024.0 mg/kg/injection, schedule: Q01DX001 (ip), vehicle: saline): 140 % of control
- survivor count (T/C endpoint: mean survival time, dose: 1024.0 mg/kg/injection, schedule: Q01DX009 (ip), vehicle: saline): 6 of 10
- T/C (T/C endpoint: mean survival time, dose: 1024.0 mg/kg/injection, schedule: Q08DX002 (ip), vehicle: saline): 126 % of control [9 of 10 alive]
- T/C (T/C endpoint: median survival time, dose: 8.0 mg/kg/injection, schedule: Q03HX008 (ip), vehicle: saline): 127 % of control
- T/C (T/C endpoint: median survival time, dose: 8.0 mg/kg/injection, schedule: Q03HX024 (ip), vehicle: saline): 133 % of control
- T/C (T/C endpoint: median survival time, dose: 32.0 mg/kg/injection, schedule: Q03HX008 (ip), vehicle: saline): 133 % of control
- T/C (T/C endpoint: median survival time, dose: 32.0 mg/kg/injection, schedule: Q03HX024 (ip), vehicle: saline): 133 % of control
- T/C (T/C endpoint: median survival time, dose: 64.0 mg/kg/injection, schedule: Q03HX024 (ip), vehicle: saline): 133 % of control
- T/C (T/C endpoint: median survival time, dose: 100.0 mg/kg/injection, schedule: Q01DX009 (ip), vehicle: saline, evaluated on day 7): 100 and 103 % of control
- T/C (T/C endpoint: median survival time, dose: 100.0 mg/kg/injection, schedule: Q01DX009 (ip), vehicle: saline, evaluated on day 43): 100 % of control
- T/C (T/C endpoint: median survival time, dose: 100.0 mg/kg/injection, schedule: Q01DX009 (ip), vehicle: saline, evaluated on day 44): 100 % of control [7 of 8 alive]
- T/C (T/C endpoint: median survival time, dose: 128.0 mg/kg/injection, schedule: Q03HX008 (ip), vehicle: saline): 133 % of control [7 of 8 alive]
- T/C (T/C endpoint: median survival time, dose: 128.0 mg/kg/injection, schedule: Q03HX024 (ip), vehicle: saline): 138 % of control
- T/C (T/C endpoint: median survival time, dose: 200.0 mg/kg/injection, schedule: Q01DX009 (ip), vehicle: saline, evaluated on day 7): 102 and 103 % of control
- T/C (T/C endpoint: median survival time, dose: 200.0 mg/kg/injection, schedule: Q01DX009 (ip), vehicle: saline, evaluated on day 43): 100 % of control
- T/C (T/C endpoint: median survival time, dose: 200.0 mg/kg/injection, schedule: Q01DX009 (ip), vehicle: saline, evaluated on day 44): 100 % of control
- T/C (T/C endpoint: median survival time, dose: 250.0 mg/kg/injection, schedule: Q01DX009 (ip), vehicle: saline, evaluated on day 5): 129 % of control
- T/C (T/C endpoint: median survival time, dose: 250.0 mg/kg/injection, schedule: Q01DX009 (ip), vehicle: saline, evaluated on day 30): 125 % of control
- T/C (T/C endpoint: median survival time, dose: 256.0 mg/kg/injection, schedule: Q01DX001 (ip), vehicle: saline): 127 % of control
- T/C (T/C endpoint: median survival time, dose: 256.0 mg/kg/injection, schedule: Q01DX009 (ip), vehicle: saline): 133 % of control
- T/C (T/C endpoint: median survival time, dose: 256.0 mg/kg/injection, schedule: Q04DX003 (ip), vehicle: saline): 127 % of control
- T/C (T/C endpoint: median survival time, dose: 400.0 mg/kg/injection, schedule: Q01DX009 (ip), vehicle: saline, evaluated on day 7): 101 and 103 % of control
- T/C (T/C endpoint: median survival time, dose: 400.0 mg/kg/injection, schedule: Q01DX009 (ip), vehicle: saline, evaluated on day 43): 100 % of control
- T/C (T/C endpoint: median survival time, dose: 400.0 mg/kg/injection, schedule: Q01DX009 (ip), vehicle: saline, evaluated on day 44): 100 % of control
- T/C (T/C endpoint: median survival time, dose: 500.0 mg/kg/injection, schedule: Q01DX009 (ip), vehicle: saline, evaluated on day 5): 127 % of control
- T/C (T/C endpoint: median survival time, dose: 500.0 mg/kg/injection, schedule: Q01DX009 (ip), vehicle: saline, evaluated on day 30): 125 % of control
- T/C (T/C endpoint: median survival time, dose: 512.0 mg/kg/injection, schedule: Q01DX009 (ip), vehicle: saline): 144 % of control
- T/C (T/C endpoint: median survival time, dose: 512.0 mg/kg/injection, schedule: Q08DX002 (ip), vehicle: saline): 127 % of control
- T/C (T/C endpoint: median survival time, dose: 800.0 mg/kg/injection, schedule: Q01DX009 (ip), vehicle: saline, evaluated on day 7): 94 and 101 % of control
- T/C (T/C endpoint: median survival time, dose: 800.0 mg/kg/injection, schedule: Q01DX009 (ip), vehicle: saline, evaluated on day 43): 100 % of control
- T/C (T/C endpoint: median survival time, dose: 800.0 mg/kg/injection, schedule: Q01DX009 (ip), vehicle: saline, evaluated on day 44): 90 % of control
- T/C (T/C endpoint: median survival time, dose: 1024.0 mg/kg/injection, schedule: Q01DX001 (ip), vehicle: saline): 133 % of control
- T/C (T/C endpoint: median survival time, dose: 1024.0 mg/kg/injection, schedule: Q04DX003 (ip), vehicle: saline): 127 % of control
